{
  "source": "PubChem BioAssay AID1487",
  "about": "(National Center for Advancing Translational Sciences (NCATS), 2009)",
  "test": "qHTS Assay for Modulators of Lamin A Splicing",
  "conditions": "HeLa LMNA splicing GFP/RFP minigene ratio, 48 h",
  "method_in_brief": "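S3 HeLa stable clones carrying a lamin A-EGFP splicing minigene plus DsRed2 were seeded at 600 cells/well in Opti-MEM with 2% FBS, pin-dosed and incubated 48 h at 37°C. Acumen cytometry (488 nm) gave the GFP/RFP total-intensity ratio.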",
  "key": {"[1]": {"conditions": "measured here: RFP viability control channel"}, "[2]": {"conditions": "measured here: GFP splicing reporter channel"}},
  "note": "The other results are listed elsewhere or left out. These are further read-outs of the screen, such as a control signal, another cell line or another target. No call is given for them. The list favours compounds with an active or inconclusive main result. Potencies come from curve fits of mixed quality, noted in brackets.",
  "data": [
    {"smiles": "CCc1ccc(N=c2c([N+](=O)[O-])nn(-c3ccccc3)n2O)cc1", "values": [
      {"measurement": "AC50", "setting": "[1]", "result": "22.4 µM [rising, single point]"}
    ]},
    {"smiles": "CCn1c(SCC(=O)Nc2cc(C)ccc2C)nnc1-c1cnccn1", "values": [
      {"measurement": "AC50", "setting": "[1]", "result": "2 µM [falling, full curve, poor fit]"}
    ]},
    {"smiles": "O=C(Nc1ccc(Cl)cc1C(=O)N1CCOCC1)c1cccc([N+](=O)[O-])c1", "values": [
      {"measurement": "AC50", "setting": "[1]", "result": "8.91 µM [rising, partial curve]"}
    ]},
    {"smiles": "O=C(CC1N=C2c3ccccc3N=C(SCc3ccccc3Cl)N2C1=O)NC1CCCCC1", "note": "(stereo not given)", "values": [
      {"measurement": "AC50", "setting": "[1]", "result": "0.0708 µM [falling, full curve, poor fit]"}
    ]},
    {"smiles": "CCOc1cc(CNC(C)(C)CO)cc(Br)c1OCc1ccc(Cl)cc1Cl", "values": [
      {"measurement": "AC50", "setting": "[2]", "result": "15.8 µM [falling, single point]"},
      {"measurement": "AC50", "setting": "[1]", "result": "7.08 µM [falling, single point]"}
    ]},
    {"smiles": "C/C(=N\\NC(=O)C(=O)Nc1cccc(Cl)c1)c1ccncc1", "values": [
      {"measurement": "AC50", "setting": "[2]", "result": "1.78 µM [rising, full curve]"}
    ]},
    {"smiles": "CC(CCc1ccccc1)NC(=O)c1cccnc1", "note": "(stereo not given)", "values": [
      {"measurement": "AC50", "setting": "[1]", "result": "1.41 µM [rising, full curve, poor fit]"}
    ]},
    {"smiles": "O=S(Cc1cc(Sc2ccccc2)nc(-c2ccccc2)n1)c1ccccc1", "note": "(stereo not given)", "values": [
      {"measurement": "AC50", "setting": "[2]", "result": "8.91 µM [rising, partial curve]"},
      {"measurement": "AC50", "setting": "[1]", "result": "14.1 µM [rising, single point]"}
    ]},
    {"smiles": "CCOC(=O)N1CCC(n2c(SCC(=O)Nc3nccs3)nc3ccsc3c2=O)CC1", "values": [
      {"measurement": "AC50", "setting": "[1]", "result": "8.91 µM [rising, partial curve, poor fit]"}
    ]},
    {"smiles": "Clc1ccc(Cn2ncc3c(N4CCCCC4)ncnc32)c(Cl)c1", "values": [
      {"measurement": "AC50", "setting": "[2]", "result": "35.5 µM [rising, single point]"}
    ]},
    {"smiles": "COc1ccc(Br)cc1CNC(=O)CCSCc1ccc(Cl)cc1", "values": [
      {"measurement": "AC50", "setting": "[1]", "result": "0.0562 µM [rising, full curve, poor fit]"}
    ]},
    {"smiles": "COc1ccc(CCNC(=O)CCCOc2ccc(C)cc2)cc1OC", "values": [
      {"measurement": "AC50", "setting": "[2]", "result": "12.6 µM [rising, single point]"},
      {"measurement": "AC50", "setting": "[1]", "result": "35.5 µM [rising, single point]"}
    ]},
    {"smiles": "O=c1c(Cc2ccc(F)cc2)c(O)ccn1Cc1cccc(Cl)c1", "values": [
      {"measurement": "AC50", "setting": "[1]", "result": "11.2 µM [rising, partial curve]"}
    ]},
    {"smiles": "CCOc1cccc(C(=O)NC(=S)Nc2cccc(NC(=O)c3ccccc3Cl)c2)c1", "values": [
      {"measurement": "AC50", "setting": "[1]", "result": "11.2 µM [rising, single point]"}
    ]},
    {"smiles": "C/C(=N\\Nc1nc2ccccc2s1)c1ccc2c(c1)OCO2", "values": [
      {"measurement": "AC50", "setting": "[2]", "result": "8.91 µM [rising, partial curve, poor fit]"},
      {"measurement": "AC50", "setting": "[1]", "result": "31.6 µM [rising, partial curve]"}
    ]},
    {"smiles": "COC(=O)[C@@H](NC(=O)CCc1nnc(-c2ccsc2)o1)C(C)C", "values": [
      {"measurement": "AC50", "setting": "[1]", "result": "3.98 µM [falling, partial curve, poor fit]"}
    ]}
  ]
}
